Measurements from article PMC2629585.
Results are given in words; binding and its absence hold for the method and conditions named. A result given as binding can be weak or reduced; the word gives no strength.

What was measured:
[1] = target: T1, C-reactive protein (CRP), human, purified (Sigma) (human) (UniProt P02741); experiment: ELISA; CRP immobilised, L-rFBG added; acidic pH (5.5, 6.0, 6.5 in MBS), 2 or 2.5 mM calcium; HSA-coated wells subtracted; both purified
T1 sequence: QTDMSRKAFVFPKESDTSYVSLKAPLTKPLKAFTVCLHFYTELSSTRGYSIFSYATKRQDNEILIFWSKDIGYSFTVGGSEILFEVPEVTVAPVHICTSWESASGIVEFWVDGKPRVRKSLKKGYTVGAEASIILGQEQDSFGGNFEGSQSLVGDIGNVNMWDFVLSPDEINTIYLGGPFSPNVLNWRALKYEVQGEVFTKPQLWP

[2] = target: T1, C-reactive protein (CRP), human, purified (Sigma) (human); experiment: ELISA; 0.8 ug CRP immobilised on Maxisorp wells; L-rFBG in blocking buffer (1% HSA in TBST, pH 7.4) added, 37 C, 2 h; detected with anti-myc; HSA-coated wells subtracted; both purified

In the case of “recombinant FBG domain of L-ficolin (L-rFBG) (human) (domain or fragment)”, the binding [1] is reported as “binds” and the binding [2] is reported as “binds”.
